Experimental data published in the supplement of paper PMC12067093, “Discovery and optimisation of a covalent ligand for TRIM25 and its application to targeted protein ubiquitination” (Chemical Science, 2025).
Some of the results follow.

Amino acid sequences for entries named in this document (tags omitted). A change or cut given only in a name is not applied to a line headed by its entry.
UniProt Q8TCF1: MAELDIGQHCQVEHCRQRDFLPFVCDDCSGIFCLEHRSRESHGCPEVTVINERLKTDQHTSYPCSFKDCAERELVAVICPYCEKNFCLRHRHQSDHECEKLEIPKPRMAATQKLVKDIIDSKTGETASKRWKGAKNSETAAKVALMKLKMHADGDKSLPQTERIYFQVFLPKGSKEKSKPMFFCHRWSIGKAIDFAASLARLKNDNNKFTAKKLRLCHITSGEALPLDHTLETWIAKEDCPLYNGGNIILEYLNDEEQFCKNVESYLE
UniProt O43542: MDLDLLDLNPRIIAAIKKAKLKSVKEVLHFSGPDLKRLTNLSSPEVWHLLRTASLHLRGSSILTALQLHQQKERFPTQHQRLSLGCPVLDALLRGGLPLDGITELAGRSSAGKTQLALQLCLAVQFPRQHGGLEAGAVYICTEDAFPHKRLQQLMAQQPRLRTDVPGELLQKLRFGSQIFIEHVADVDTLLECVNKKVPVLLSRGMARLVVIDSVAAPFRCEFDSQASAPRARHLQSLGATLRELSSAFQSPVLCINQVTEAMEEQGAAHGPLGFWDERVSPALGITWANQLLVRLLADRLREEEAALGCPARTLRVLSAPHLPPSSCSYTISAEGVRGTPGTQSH
UniProt Q9UGR2: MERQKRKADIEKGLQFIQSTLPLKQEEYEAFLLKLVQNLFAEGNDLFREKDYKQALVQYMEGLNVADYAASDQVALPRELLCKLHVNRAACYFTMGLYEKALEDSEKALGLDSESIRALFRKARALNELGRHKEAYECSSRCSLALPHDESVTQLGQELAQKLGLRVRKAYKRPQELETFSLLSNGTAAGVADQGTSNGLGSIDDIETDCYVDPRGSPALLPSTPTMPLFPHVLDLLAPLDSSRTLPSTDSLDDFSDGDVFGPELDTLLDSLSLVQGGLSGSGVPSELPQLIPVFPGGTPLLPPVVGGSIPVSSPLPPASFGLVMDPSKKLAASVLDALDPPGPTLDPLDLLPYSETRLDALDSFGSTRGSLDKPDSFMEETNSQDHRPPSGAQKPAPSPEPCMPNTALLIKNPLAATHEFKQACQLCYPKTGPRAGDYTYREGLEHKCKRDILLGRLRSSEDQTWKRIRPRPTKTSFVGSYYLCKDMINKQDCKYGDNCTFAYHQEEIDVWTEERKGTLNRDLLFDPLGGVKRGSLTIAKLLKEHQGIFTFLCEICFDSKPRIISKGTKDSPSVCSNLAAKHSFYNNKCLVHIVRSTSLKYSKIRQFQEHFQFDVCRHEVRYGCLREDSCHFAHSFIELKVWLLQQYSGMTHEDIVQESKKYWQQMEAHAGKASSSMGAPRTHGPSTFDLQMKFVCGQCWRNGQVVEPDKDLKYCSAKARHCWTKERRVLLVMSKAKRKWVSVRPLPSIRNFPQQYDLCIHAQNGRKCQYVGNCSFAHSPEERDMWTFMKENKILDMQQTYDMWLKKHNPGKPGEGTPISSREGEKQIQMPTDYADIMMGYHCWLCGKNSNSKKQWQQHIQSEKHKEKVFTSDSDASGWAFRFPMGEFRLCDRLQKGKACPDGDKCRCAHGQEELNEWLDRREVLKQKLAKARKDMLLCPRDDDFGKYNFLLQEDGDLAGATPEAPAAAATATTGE
UniProt Q96QU8: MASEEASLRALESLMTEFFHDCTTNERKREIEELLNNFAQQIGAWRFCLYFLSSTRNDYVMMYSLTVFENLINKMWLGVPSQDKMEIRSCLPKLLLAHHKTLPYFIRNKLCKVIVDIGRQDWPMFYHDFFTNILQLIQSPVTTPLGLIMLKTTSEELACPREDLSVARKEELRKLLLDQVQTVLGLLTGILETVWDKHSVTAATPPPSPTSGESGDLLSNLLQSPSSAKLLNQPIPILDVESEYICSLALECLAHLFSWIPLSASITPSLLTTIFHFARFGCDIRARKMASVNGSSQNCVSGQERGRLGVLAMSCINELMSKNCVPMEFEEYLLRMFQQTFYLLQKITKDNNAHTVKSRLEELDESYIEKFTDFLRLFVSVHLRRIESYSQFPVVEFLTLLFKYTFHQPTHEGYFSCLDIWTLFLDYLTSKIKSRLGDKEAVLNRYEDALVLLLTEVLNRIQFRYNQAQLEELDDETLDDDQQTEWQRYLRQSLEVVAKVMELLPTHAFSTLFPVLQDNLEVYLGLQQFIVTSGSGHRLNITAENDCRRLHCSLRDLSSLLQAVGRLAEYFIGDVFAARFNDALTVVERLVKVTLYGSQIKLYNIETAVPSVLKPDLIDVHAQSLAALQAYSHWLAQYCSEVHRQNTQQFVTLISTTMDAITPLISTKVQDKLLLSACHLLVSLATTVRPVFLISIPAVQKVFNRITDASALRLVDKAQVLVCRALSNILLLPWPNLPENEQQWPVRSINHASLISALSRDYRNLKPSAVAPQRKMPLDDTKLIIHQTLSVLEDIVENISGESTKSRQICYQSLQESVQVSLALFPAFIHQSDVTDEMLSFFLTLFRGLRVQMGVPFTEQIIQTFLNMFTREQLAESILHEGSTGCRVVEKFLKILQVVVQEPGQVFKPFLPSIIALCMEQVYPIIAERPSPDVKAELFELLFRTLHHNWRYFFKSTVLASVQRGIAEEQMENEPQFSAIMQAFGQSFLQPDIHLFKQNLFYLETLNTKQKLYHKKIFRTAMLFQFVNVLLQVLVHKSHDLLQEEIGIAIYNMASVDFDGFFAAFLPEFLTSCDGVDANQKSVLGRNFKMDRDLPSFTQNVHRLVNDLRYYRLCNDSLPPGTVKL
UniProt A8MPS7: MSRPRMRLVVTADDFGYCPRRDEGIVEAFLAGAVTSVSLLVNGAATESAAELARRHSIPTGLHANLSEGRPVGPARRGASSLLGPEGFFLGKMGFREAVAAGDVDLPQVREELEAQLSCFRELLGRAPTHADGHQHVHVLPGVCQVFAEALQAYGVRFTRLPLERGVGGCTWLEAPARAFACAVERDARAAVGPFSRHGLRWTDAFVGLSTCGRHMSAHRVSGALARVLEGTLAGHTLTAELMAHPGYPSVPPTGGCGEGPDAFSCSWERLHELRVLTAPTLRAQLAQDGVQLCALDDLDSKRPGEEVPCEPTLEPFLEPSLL
UniProt O43829: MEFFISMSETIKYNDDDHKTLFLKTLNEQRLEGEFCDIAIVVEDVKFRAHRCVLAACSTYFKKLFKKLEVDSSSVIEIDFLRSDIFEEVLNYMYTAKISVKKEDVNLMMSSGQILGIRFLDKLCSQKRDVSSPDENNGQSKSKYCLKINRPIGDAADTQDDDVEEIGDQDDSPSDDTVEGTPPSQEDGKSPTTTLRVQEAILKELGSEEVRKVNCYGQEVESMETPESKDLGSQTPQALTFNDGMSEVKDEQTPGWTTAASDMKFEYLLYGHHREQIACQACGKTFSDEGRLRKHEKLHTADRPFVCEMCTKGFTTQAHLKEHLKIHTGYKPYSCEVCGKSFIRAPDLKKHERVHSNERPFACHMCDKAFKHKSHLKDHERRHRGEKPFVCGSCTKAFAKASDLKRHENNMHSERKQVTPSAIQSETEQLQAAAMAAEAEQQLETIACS
UniProt Q96H79: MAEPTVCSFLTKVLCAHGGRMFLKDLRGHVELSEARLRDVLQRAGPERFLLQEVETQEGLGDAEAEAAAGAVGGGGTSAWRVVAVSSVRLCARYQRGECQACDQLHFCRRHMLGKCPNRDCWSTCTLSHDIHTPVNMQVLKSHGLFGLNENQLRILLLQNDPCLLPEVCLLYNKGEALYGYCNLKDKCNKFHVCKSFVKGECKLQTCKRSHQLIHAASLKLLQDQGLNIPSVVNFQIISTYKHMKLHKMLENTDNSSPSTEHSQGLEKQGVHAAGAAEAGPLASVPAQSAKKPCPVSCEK
UniProt Q9UIA9: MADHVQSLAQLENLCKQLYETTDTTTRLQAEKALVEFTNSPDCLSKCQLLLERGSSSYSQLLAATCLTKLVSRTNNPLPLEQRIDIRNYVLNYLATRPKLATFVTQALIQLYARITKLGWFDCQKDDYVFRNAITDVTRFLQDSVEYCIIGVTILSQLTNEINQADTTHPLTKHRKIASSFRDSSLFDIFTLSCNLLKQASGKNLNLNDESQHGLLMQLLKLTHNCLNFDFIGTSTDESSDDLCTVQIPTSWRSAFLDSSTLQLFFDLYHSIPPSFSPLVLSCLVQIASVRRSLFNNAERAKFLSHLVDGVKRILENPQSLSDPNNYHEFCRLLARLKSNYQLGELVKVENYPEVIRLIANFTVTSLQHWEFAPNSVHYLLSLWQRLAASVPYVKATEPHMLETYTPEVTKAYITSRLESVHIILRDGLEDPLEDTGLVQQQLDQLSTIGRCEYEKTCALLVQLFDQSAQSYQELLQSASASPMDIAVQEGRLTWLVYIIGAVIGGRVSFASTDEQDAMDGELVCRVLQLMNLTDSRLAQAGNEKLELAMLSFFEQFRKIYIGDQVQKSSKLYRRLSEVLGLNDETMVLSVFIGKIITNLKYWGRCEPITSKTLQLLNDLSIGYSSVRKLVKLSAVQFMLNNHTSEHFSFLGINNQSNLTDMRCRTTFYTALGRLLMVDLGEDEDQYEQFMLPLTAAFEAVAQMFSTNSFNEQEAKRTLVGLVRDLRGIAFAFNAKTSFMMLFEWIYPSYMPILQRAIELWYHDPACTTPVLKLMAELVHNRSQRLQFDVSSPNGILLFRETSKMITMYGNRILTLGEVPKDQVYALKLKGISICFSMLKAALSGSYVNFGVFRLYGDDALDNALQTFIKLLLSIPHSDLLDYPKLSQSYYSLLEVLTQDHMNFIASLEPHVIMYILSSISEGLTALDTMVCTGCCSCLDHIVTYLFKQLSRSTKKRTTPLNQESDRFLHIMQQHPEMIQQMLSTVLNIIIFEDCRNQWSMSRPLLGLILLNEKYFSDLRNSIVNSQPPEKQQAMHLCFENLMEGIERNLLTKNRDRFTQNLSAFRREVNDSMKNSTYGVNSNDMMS
UniProt Q9H6S0: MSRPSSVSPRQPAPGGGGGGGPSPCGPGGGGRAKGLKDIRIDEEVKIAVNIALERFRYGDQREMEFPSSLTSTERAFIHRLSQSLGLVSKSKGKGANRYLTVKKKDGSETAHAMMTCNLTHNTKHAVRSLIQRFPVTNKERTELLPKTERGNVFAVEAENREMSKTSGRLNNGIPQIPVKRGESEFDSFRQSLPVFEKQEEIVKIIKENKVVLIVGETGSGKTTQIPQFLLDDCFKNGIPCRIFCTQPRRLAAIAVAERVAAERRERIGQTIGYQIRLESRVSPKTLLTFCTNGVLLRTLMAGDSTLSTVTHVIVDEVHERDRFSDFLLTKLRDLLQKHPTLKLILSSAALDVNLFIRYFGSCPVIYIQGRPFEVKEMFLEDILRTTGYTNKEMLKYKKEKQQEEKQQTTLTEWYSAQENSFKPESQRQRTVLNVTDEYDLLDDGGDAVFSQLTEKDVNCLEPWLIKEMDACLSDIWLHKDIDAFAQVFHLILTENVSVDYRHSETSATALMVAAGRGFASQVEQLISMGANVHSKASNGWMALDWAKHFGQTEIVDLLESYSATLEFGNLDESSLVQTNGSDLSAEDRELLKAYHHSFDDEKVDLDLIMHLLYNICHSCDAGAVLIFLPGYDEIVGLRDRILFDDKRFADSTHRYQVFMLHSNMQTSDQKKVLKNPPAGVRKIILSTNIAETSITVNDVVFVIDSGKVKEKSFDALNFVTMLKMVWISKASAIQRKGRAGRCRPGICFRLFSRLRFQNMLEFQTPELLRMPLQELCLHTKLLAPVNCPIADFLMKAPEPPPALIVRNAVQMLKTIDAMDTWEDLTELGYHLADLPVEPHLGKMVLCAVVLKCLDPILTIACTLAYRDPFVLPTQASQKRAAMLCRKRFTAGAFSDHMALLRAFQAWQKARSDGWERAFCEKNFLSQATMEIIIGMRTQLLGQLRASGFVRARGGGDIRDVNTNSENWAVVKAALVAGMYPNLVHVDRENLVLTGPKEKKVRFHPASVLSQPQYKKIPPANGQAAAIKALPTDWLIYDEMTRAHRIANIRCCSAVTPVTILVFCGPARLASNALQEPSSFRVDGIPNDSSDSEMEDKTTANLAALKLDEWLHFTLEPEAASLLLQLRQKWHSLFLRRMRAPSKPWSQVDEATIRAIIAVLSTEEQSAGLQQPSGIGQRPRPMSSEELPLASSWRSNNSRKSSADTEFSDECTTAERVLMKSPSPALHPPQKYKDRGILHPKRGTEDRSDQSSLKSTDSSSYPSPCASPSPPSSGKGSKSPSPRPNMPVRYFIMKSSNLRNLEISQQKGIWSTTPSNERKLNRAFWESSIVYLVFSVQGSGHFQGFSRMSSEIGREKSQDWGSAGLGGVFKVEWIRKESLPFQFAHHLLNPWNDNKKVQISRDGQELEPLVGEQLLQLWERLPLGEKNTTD
UniProt Q8IVQ6: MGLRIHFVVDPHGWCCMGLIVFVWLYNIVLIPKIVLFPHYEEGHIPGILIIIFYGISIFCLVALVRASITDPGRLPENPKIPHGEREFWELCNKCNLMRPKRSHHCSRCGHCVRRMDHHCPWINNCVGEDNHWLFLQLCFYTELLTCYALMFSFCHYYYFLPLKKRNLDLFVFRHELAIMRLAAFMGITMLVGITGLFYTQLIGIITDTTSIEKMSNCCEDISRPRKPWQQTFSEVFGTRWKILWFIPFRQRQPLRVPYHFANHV

Compound: Cc1cc(ccc1-c1ccccc1)C(=O)N1CCCN(CC1)C(=O)CCl [compound 10]
Test: probe-labelled cysteine peptide fold change vs DMSO (competition) (log2 fold change); higher = less target engagement (more negative = stronger competition)
Details: THP-1, incubation time: 4 h
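Further: competitive profiling in live THP-1 cells: cysteine peptides tagged with an iodoacetamide desthiobiotin (IA-DTB) probe, intensity after compound treatment relative to DMSO-treated cells.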

Target | probe-labelled cysteine peptide fold change (10 µM) | probe-labelled cysteine peptide fold change (50 µM)
ZFAND1_Q8TCF1_28+33_DFLPFVCDDCSGIFCLEHR (UniProt Q8TCF1) | -0.295 | -0.0113
XRCC3_O43542_193_FGSQIFIEHVADVDTLLECVNK (UniProt O43542) | -0.0318 | -0.00191
ZC3HAV1_Q7Z2W4_518_VDDHDSEEICLDHLCK (UniProt Q7Z2W4) | 0.142 | -0.378
XRN2_Q9H0D6_296_HDELADSLPCAEGEFIFLR (UniProt Q9H0D6) | 0.234 | 0.125
ZC3H7B_Q9UGR2_909_CAHGQEELNEWLDRR (UniProt Q9UGR2) | -0.0432 | -0.228
ZC3HAV1_Q7Z2W4_798_AYVESICSNNFDSFLHETHENK (UniProt Q7Z2W4) | -0.00309 | 0.073
XPO6_Q96QU8_159_TTSEELACPR (UniProt Q96QU8) | -0.0411 | 0.0136
XRN1_Q8IZH2_16_YPCLSEVVK (UniProt Q8IZH2) | 0.0766 | 0.204
YDJC_A8MPS7_212_WTDAFVGLSTCGR (UniProt A8MPS7) | -0.364 | -0.788
ZBTB14_O43829_215_VNCYGQEVESMETPESK (UniProt O43829) | -0.181 | -0.177
ZC3HAV1L_Q96H79_121_DCWSTCTLSHDIHTPVNMQVLK (UniProt Q96H79) | 0.000846 | -0.495
ZFC3H1_O60293_1141_TMEVKPCPFRPYHSPLLVFK (UniProt O60293) | -0.204 | -0.16
ZFAND1_Q8TCF1_64_LKTDQHTSYPCSFK (UniProt Q8TCF1) | -0.0542 | -0.645
ZC3HAV1L_Q96H79_99+108_GECQACDQLHFCR (UniProt Q96H79) | -0.126 | 0.0744
ZC3H11A_O75152_80_LNCAFHHNR (UniProt O75152) | 0.0566 | -0.191
YARS2_Q9Y2Z4_413_EAPFSEFFLDPGTSVLDTCRK (UniProt Q9Y2Z4) | -0.161 | -0.368
XPO5_Q9HAV4_419_TDSPSCEYSR (UniProt Q9HAV4) | 0.0519 | 0.555
ZFAND1_Q8TCF1_10+15_AELDIGQHCQVEHCR (UniProt Q8TCF1) | -0.155 | 0.254
ZC3H13_Q5T200_1643_TTCHAPGHEK (UniProt Q5T200) | -0.253 | -0.227
ZFAND5_O76080_170_CGNLFCGLHR (UniProt O76080) | 0.442 | 0.48

Target | probe-labelled cysteine peptide fold change (10 µM) | probe-labelled cysteine peptide fold change (50 µM)
XPO7_Q9UIA9_767_AIELWYHDPACTTPVLK (UniProt Q9UIA9) | -0.101 | 0.198
YAE1_Q9NRH1_143_SITPPSHVVDLLDSIEDMDLCHVVPAEK (UniProt Q9NRH1) | -0.335 | 0.0421
ZBTB34_Q8NCN2_402_LHMGITPFVCK (UniProt Q8NCN2) | -0.127 | -0.0641
XPO6_Q96QU8_723_AQVLVCR (UniProt Q96QU8) | 0.0153 | 0.0471
XRN2_Q9H0D6_715_HHPLHDFILELYQTGSTEPVEVPPELCHGIQGK (UniProt Q9H0D6) | -0.0366 | 0.0175
ZFAND3_Q9H8U3_192_LPEQHDCTFDHMGR (UniProt Q9H8U3) | -0.152 | -0.347
YTHDC2_Q9H6S0_788_LLAPVNCPIADFLMK (UniProt Q9H6S0) | -0.0326 | -0.072
XRN2_Q9H0D6_296_GKHDELADSLPCAEGEFIFLR (UniProt Q9H0D6) | 0.0027 | 0.00289
ZC3HAV1L_Q96H79_99+102_GECQACDQLHFCR (UniProt Q96H79) | -0.135 | -0.106
ZFAND1_Q8TCF1_28_QRDFLPFVCDDCSGIFCLEHR (UniProt Q8TCF1) | 0.0318 | -0.129
XPO7_Q9UIA9_15_ADHVQSLAQLENLCK (UniProt Q9UIA9) | 0.239 | 0.121
ZDHHC21_Q8IVQ6_109_CGHCVR (UniProt Q8IVQ6) | 0.082 | -0.0198
ZBTB33_Q86T24_32_GHGLFCDVTVIVEDRK (UniProt Q86T24) | 0.167 | 0.0822
YIPF4_Q9BSR8_94_CVLMPMPSLGFNR (UniProt Q9BSR8) | 0.0423 | -0.000503
ZBTB11_O95625_943_DYVPCK (UniProt O95625) | -0.172 | -0.425
ZCCHC3_Q9NUD5_277_HCDVLAVPVK (UniProt Q9NUD5) | 0.209 | 0.242
ZC3H10_Q96K80_140_EEVPICR (UniProt Q96K80) | -0.106 | 0.152
YTHDC2_Q9H6S0_472_EMDACLSDIWLHK (UniProt Q9H6S0) | 0.18 | 0.25
ZDHHC21_Q8IVQ6_106_SHHCSR (UniProt Q8IVQ6) | 0.368 | 0.0748
YWHAB_P31946_191_ACSLAK (UniProt P31946) | -0.00672 | -0.176

As a working copy, part of the list above:
Target | probe-labelled cysteine peptide fold change (10 µM) | probe-labelled cysteine peptide fold change (50 µM)
XRCC3_O43542_193_FGSQIFIEHVADVDTLLECVNK (UniProt O43542) | -0.0318 | -0.00191
ZC3HAV1_Q7Z2W4_518_VDDHDSEEICLDHLCK (UniProt Q7Z2W4) | 0.142 | -0.378
XRN2_Q9H0D6_296_HDELADSLPCAEGEFIFLR (UniProt Q9H0D6) | 0.234 | 0.125
ZC3H7B_Q9UGR2_909_CAHGQEELNEWLDRR (UniProt Q9UGR2) | -0.0432 | -0.228
ZC3HAV1_Q7Z2W4_798_AYVESICSNNFDSFLHETHENK (UniProt Q7Z2W4) | -0.00309 | 0.073
XPO6_Q96QU8_159_TTSEELACPR (UniProt Q96QU8) | -0.0411 | 0.0136
XRN1_Q8IZH2_16_YPCLSEVVK (UniProt Q8IZH2) | 0.0766 | 0.204
YDJC_A8MPS7_212_WTDAFVGLSTCGR (UniProt A8MPS7) | -0.364 | -0.788
ZBTB14_O43829_215_VNCYGQEVESMETPESK (UniProt O43829) | -0.181 | -0.177
